Experimental data published in patent publication US20240245677A1, “SELECTED COMPOUNDS FOR TARGETED DEGRADATION OF BRD9” (C4 THERAPEUTICS, INC., priority 2021, published 2024).
Like-named read-outs stand apart in the source and are kept apart here.

Legend:
[1] = Plasma protein binding by ultracentrifugation, mouse plasma; settings: average n = 3
Protocol: (§1) Plasma protein binding (PPB) of Compound 1 was evaluated in plasma from mice, rats, dogs, cynomolgus monkeys, and humans using ultracentrifugation.
(§2) Frozen plasma from CD-1 mice, Sprague-Dawley rats, beagle dogs, cynomolgus monkeys, and humans was purchased and stored at ≤−30° C. On the day of study, plasma samples of CD-1 mice, Sprague-Dawley rats, beagle dogs, cynomolgus monkeys and humans were thawed under running cold tap water and centrifuged to remove any particulates.
(§3) For the internal standard, telmisartan, a 1 mg/mL solution was prepared by dissolving 1.4 mg of telmisartan in 1.4 mL of DMSO, and stored at 4° C.
(§4) The 10 mM stock solution of each test compound was used to prepare 400 μM intermediate stocks in methanol. Then, a 2 μM working stock of each test compound was prepared for plasma from each species (mouse, rat, dog, monkey, and human) by spiking 12 μL of the 400 μM intermediate stock for each test compound into 2400 μL of thawed and prepared plasma from a test species. […]
(§5) All the stability samples and centrifuged samples were vortexed at 1000 rpm for 5 minutes and centrifuged at 4000 rpm for 10 minutes. Supernatant from each sample was separated, diluted 2-fold with water, and analyzed in LC-MS/MS.
(§6) Samples (supernatant-free fraction and total plasma) were analyzed by LCMS-MS (no standards).

[2] = Plasma protein binding by ultracentrifugation, dog plasma; settings: average n = 3
Protocol: as §1, §2, §3, §4, §5, §6

[3] = Plasma protein binding by ultracentrifugation, rat plasma
Protocol: as §1, §2, §3
(§7) The 10 mM stock solution of each test compound was used to prepare 400 μM intermediate stocks in methanol. Then, a 2 μM working stock of each test compound was prepared for plasma from each species (mouse, rat, dog, monkey, and human) by spiking 12 μL of the 400 μM intermediate stock for each test compound into 2400 μL of thawed and prepared plasma from a test species.
(§8) 400 μL of blank plasma for each species was transferred to a 0.5 mL Beckman tube (Part No. 343776, Beckman Coulter Life Sciences, Indianapolis, IN, USA) and centrifuged for 3 hours at 627000×g at 37° C. The supernatant was removed and kept at room temperature.
(§9) To prepare for ultracentrifugation, the rotor of the centrifuge was placed into an incubator and warmed up to 37° C. before centrifugation. The vacuum switch of the OPTIMA™ MAX-TL Ultracentrifuge (Beckman Coulter Life Sciences, Indianapolis, IN, USA) was turned on and the vacuum was reduced to less than 10 microns to warm up the system. The ultracentrifuge's parameters were set to the following: Temperature—37° C.; Time—3 hours; and Speed—627000×g. […]
as §5, §6

[4] = human, plasma, 2 µM
Protocol: as §1, §2, §3, §7, §8, §9, §5, §6

[5] = Plasma protein binding by ultracentrifugation, monkey plasma; settings: average n = 3
Protocol: as §1, §2, §3, §4, §5, §6

CC(C)NCC(O)COc1ccc(CC(N)=O)cc1 (stereo not drawn) [Atenolol]
% Remaining at 3 hours [1]: 125.31% | % Remaining at 3 hours [2]: 75.82% | fraction unbound at 3 h, 2 µM ([3]; Sprague-Dawley, rat, plasma): 0.846 | % Bound ([3]; rat plasma, average n = 3): 15.40% | % Remaining at 3 hours ([3]; rat plasma, average n = 3): 85.83% | % Remaining at 3 hours [4]: 90.68% | % Bound ([4]; 3 h): −4.26% | % FU ([4]; 3 h): 104.26% | % Remaining at 3 hours [5]: 124.51%
